Results as given in paper PMC4426952.
These are yes or no findings as the source states them, for the method shown. Binding seen in cells or lysates may run through a third protein. Here binding means that the protein was enriched with, or labelled near, the bait; the list need not be complete.

By UniProt entry, the sequences of proteins in these tests, tags left out. Residues count along the entry.
UniProt P40763: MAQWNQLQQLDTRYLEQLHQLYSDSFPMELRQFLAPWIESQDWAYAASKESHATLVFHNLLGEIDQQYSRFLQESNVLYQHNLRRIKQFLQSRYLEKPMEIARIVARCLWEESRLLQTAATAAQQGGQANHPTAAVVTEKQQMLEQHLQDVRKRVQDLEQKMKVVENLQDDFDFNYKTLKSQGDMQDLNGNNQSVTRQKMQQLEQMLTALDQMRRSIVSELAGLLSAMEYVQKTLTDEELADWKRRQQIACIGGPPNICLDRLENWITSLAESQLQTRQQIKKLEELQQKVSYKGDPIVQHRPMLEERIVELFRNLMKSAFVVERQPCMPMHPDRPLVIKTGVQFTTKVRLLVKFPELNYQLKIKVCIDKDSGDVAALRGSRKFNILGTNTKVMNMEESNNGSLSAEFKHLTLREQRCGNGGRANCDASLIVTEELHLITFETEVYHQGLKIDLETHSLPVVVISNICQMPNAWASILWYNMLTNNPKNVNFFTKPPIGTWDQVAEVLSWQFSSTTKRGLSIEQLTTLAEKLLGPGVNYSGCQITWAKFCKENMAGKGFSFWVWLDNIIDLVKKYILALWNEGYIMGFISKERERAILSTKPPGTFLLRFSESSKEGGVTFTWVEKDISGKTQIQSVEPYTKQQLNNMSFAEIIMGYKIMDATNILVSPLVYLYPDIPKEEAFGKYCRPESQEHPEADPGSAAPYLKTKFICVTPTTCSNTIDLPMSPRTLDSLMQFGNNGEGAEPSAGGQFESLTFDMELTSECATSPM
UniProt P28799, residues 18-593: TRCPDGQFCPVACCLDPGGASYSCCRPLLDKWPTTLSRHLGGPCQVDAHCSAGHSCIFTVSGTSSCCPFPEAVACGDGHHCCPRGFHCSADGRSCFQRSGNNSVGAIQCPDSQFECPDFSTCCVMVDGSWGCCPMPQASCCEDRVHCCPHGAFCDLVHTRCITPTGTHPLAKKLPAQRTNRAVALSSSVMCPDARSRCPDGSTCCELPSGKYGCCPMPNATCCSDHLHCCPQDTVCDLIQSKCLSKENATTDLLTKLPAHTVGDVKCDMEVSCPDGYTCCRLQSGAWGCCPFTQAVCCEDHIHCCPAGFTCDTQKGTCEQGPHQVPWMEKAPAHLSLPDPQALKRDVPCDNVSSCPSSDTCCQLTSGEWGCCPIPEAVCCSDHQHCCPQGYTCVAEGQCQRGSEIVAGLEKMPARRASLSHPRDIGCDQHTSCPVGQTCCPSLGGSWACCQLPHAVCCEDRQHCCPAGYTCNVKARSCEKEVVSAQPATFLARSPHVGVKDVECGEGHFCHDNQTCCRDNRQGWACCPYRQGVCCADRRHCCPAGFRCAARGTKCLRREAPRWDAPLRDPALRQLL

Biological target: signal transducer and activator of transcription 3 (STAT3) (human (endogenous in MDA-MB-468, SUM159PT, SK-BR-3)) (UniProt P40763)
Assay: affinity purification with mass spectrometry; immunoprecipitation of endogenous STAT3 from MDA-MB-468 and SUM159PT lysates (50 mM Tris pH 7.5, 150 mM NaCl, 0.5% NP40), LC-MS/MS shotgun profiling of the eluted complexes

granulin (GRN) (from UniProt P28799 18-593)
binding: binds
